Here are results for 5 molecules from doi:10.1101/2024.02.08.579500.

Protein sequences, listed by entry. Tags and fused reporters are not part of them.
UniProt P09884: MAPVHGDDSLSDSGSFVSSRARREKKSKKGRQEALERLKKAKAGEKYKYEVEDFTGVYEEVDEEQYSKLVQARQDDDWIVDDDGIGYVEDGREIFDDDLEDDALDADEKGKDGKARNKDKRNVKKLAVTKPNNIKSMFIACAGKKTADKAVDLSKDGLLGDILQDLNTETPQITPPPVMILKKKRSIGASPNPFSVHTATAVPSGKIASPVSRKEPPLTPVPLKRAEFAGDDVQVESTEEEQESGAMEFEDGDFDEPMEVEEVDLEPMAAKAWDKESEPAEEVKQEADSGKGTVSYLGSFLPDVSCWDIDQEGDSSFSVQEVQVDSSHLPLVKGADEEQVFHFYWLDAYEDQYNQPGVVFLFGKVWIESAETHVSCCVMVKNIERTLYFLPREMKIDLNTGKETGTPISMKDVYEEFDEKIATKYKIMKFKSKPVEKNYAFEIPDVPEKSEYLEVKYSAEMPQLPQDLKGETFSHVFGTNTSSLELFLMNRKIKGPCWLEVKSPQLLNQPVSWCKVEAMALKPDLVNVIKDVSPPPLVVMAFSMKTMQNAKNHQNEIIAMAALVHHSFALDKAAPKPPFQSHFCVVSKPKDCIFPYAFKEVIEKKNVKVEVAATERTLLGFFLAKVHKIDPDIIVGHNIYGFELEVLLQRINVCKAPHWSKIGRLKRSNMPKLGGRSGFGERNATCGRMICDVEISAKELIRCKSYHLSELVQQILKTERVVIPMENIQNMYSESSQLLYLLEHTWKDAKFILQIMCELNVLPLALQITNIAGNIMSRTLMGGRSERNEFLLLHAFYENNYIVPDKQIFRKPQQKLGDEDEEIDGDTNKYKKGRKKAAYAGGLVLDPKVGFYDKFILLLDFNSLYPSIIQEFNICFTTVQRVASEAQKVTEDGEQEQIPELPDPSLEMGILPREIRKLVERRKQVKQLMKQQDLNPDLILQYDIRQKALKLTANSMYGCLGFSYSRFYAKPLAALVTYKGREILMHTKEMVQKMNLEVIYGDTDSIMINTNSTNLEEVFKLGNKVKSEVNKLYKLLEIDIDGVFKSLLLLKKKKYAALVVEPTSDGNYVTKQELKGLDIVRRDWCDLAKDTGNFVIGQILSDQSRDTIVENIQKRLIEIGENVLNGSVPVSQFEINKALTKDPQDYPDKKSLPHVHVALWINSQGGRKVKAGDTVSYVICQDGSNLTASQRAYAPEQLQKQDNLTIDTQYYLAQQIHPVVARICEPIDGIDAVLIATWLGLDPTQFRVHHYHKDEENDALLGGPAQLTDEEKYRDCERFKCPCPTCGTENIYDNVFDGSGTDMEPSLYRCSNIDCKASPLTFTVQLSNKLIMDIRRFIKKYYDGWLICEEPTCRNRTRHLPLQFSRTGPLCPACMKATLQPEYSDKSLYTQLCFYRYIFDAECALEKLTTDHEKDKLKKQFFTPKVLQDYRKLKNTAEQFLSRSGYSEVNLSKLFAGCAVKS
UniProt P15927: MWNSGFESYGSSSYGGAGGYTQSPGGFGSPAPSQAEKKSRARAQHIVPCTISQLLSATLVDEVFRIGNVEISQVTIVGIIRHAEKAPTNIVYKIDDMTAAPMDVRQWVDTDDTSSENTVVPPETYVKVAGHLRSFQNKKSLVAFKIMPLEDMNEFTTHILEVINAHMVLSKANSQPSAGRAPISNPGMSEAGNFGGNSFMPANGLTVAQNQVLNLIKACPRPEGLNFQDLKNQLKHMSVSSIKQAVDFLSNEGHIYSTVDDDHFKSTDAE
UniProt P27694: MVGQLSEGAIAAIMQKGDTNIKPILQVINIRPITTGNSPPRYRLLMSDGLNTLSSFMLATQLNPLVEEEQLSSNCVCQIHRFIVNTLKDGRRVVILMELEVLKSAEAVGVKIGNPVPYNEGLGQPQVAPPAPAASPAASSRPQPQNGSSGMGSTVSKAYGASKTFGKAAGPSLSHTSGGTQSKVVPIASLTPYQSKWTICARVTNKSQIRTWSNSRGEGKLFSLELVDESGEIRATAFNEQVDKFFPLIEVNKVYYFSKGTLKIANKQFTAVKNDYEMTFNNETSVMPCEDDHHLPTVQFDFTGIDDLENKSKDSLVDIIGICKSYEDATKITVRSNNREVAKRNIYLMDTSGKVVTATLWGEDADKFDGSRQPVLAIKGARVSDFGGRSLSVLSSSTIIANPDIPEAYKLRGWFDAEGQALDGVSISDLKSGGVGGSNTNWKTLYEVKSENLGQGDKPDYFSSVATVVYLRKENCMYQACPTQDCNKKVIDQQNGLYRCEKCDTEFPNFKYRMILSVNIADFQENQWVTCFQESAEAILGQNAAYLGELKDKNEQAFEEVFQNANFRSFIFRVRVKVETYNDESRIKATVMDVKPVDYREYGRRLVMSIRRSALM

Experiment [1] addresses DNA polymerase alpha catalytic subunit POLA1 (human (endogenous in HEK293T)) (UniProt P09884). The experiment is described as follows: affinity purification with mass spectrometry.
For experiment [2] the target is unchanged. The experiment is described as follows: affinity purification with mass spectrometry. The source holds these as a separate data set.

Read-outs that look alike come from different tables or passages of the source. These are yes or no findings as the source states them, for the method shown. Binding seen in cells or lysates may run through a third protein. Here binding means that the protein was enriched with, or labelled near, the bait; the list need not be complete.

In the case of “Replication protein A 32 kDa subunit RPA2 (from UniProt P15927 1-270)”, in experiment [1], the binding result is on record as “binds”. Still for that read-out and setting: then “Replication protein A 70 kDa subunit RPA1 (from UniProt P27694 1-616)”, with “binds”.

B1: Primase subunit PRIM1 (protein, UniProt P49642 1-420)
chain: METFDPTELPELLKLYYRRLFPYSQYYRWLNYGGVIKNYFQHREFSFTLKDDIYIRYQSFNNQSDLEKEMQKMNPYKIDIGAVYSHRPNQHNTVKLGAFQAQEKELVFDIDMTDYDDVRRCCSSADICPKCWTLMTMAIRIIDRALKEDFGFKHRLWVYSGRRGVHCWVCDESVRKLSSAVRSGIVEYLSLVKGGQDVKKKVHLSEKIHPFIRKSINIIKKYFEEYALVNQDILENKESWDKILALVPETIHDELQQSFQKSHNSLQRWEHLKKVASRYQNNIKNDKYGPWLEWEIMLQYCFPRLDINVSKGINHLLKSPFSVHPKTGRISVPIDLQKVDQFDPFTVPTISFICRELDAISTNEEEKEENEAESDVKHRTRDYKKTSLAPYVKVFEHFLENLDKSRKGELLKKSDLQKDF
For B1, in experiment [2], the binding result is “binds”.

B2: MCM3 (protein, UniProt P25205 1-808)
chain: MAGTVVLDDVELREAQRDYLDFLDDEEDQGIYQSKVRELISDNQYRLIVNVNDLRRKNEKRANRLLNNAFEELVAFQRALKDFVASIDATYAKQYEEFYVGLEGSFGSKHVSPRTLTSCFLSCVVCVEGIVTKCSLVRPKVVRSVHYCPATKKTIERRYSDLTTLVAFPSSSVYPTKDEENNPLETEYGLSVYKDHQTITIQEMPEKAPAGQLPRSVDVILDDDLVDKAKPGDRVQVVGTYRCLPGKKGGYTSGTFRTVLIACNVKQMSKDAQPSFSAEDIAKIKKFSKTRSKDIFDQLAKSLAPSIHGHDYVKKAILCLLLGGVERDLENGSHIRGDINILLIGDPSVAKSQLLRYVLCTAPRAIPTTGRGSSGVGLTAAVTTDQETGERRLEAGAMVLADRGVVCIDEFDKMSDMDRTAIHEVMEQGRVTIAKAGIHARLNARCSVLAAANPVYGRYDQYKTPMENIGLQDSLLSRFDLLFIMLDQMDPEQDREISDHVLRMHRYRAPGEQDGDAMPLGSAVDILATDDPNFSQEDQQDTQIYEKHDNLLHGTKKKKEKMVSAAFMKKYIHVAKIIKPVLTQESATYIAEEYSRLRSQDSMSSDTARTSPVTARTLETLIRLATAHAKARMSKTVDLQDAEEAVELVQYAYFKKVLEKEKKRKKRSEDESETEDEEEKSQEDQEQKRKRRKTRQPDAKDGDSYDPYDFSDTEEEMPQVHTPKTADSQETKESQKVELSESRLKAFKVALLDVFREAHAQSIGMNRLTESINRDSEEPFSSVEIQAALSKMQDDNQVMVSEGIIFLI
Turning to B2, in experiment [2], the binding entry is recorded as “binds”.

B3: MCM5 (protein, UniProt P33992 1-734)
chain: MSGFDDPGIFYSDSFGGDAQADEGQARKSQLQRRFKEFLRQYRVGTDRTGFTFKYRDELKRHYNLGEYWIEVEMEDLASFDEDLADYLYKQPAEHLQLLEEAAKEVADEVTRPRPSGEEVLQDIQVMLKSDASPSSIRSLKSDMMSHLVKIPGIIIAASAVRAKATRISIQCRSCRNTLTNIAMRPGLEGYALPRKCNTDQAGRPKCPLDPYFIMPDKCKCVDFQTLKLQELPDAVPHGEMPRHMQLYCDRYLCDKVVPGNRVTIMGIYSIKKFGLTTSRGRDRVGVGIRSSYIRVLGIQVDTDGSGRSFAGAVSPQEEEEFRRLAALPNVYEVISKSIAPSIFGGTDMKKAIACLLFGGSRKRLPDGLTRRGDINLLMLGDPGTAKSQLLKFVEKCSPIGVYTSGKGSSAAGLTASVMRDPSSRNFIMEGGAMVLADGGVVCIDEFDKMREDDRVAIHEAMEQQTISIAKAGITTTLNSRCSVLAAANSVFGRWDETKGEDNIDFMPTILSRFDMIFIVKDEHNEERDVMLAKHVITLHVSALTQTQAVEGEIDLAKLKKFIAYCRVKCGPRLSAEAAEKLKNRYIIMRSGARQHERDSDRRSSIPITVRQLEAIVRIAEALSKMKLQPFATEADVEEALRLFQVSTLDAALSGTLSGVEGFTSQEDQEMLSRIEKQLKRRFAIGSQVSEHSIIKDFTKQKYPEHAIHKVLQLMLRRGEIQHRMQRKVLYRLK
B3: the binding result in experiment [2] is “binds”.
